Results are given in words; binding and its absence hold for the method and conditions named. Binding seen in cells or lysates may run through a third protein. Some entries that bind do so weakly or less than the wild type.

The chains behind the UniProt entries cited, without tags or fusion partners. Where a name states a change or a piece, a line headed by the entry shows the natural chain unless it says otherwise. Residues count along the entry.
UniProt P19109: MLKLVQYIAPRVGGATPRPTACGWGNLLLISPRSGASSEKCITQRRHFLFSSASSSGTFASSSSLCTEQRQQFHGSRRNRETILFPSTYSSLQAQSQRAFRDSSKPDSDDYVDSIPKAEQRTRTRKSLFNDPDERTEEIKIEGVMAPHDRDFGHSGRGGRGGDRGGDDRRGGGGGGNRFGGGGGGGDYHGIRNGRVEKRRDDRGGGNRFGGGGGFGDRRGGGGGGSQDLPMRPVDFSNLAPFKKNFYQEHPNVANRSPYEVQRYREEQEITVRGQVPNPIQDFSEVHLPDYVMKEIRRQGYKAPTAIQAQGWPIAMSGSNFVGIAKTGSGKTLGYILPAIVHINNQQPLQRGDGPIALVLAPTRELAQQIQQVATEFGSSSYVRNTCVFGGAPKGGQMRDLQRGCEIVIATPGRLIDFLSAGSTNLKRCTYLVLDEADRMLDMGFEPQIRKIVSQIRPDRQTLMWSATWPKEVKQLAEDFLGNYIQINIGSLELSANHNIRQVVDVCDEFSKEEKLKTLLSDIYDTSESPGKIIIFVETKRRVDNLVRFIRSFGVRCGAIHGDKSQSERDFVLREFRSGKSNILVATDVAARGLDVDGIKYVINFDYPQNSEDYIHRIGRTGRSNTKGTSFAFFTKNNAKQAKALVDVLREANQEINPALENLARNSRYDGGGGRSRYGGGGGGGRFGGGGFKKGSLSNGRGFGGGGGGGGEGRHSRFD
UniProt P45975: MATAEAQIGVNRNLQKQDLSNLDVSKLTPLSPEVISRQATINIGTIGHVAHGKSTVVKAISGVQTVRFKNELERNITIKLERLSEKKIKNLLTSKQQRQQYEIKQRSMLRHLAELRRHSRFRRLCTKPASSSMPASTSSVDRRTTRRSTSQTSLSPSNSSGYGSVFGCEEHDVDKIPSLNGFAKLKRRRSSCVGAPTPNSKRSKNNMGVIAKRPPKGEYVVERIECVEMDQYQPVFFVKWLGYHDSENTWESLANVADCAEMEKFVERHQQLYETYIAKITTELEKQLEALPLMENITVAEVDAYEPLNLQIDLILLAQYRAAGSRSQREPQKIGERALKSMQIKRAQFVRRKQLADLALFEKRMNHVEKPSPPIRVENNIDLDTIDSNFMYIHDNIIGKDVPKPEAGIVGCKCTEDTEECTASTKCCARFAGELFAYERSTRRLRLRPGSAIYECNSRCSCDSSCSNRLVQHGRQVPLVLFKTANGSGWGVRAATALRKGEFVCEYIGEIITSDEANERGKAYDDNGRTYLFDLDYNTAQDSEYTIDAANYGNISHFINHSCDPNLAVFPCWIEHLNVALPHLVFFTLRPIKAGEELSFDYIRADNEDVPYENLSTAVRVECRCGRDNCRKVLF
GST SU(VAR)3-9 NT (aa 1–152): residues 1-152 of P45975

We go through 3 substances from publication PMC3107242.

The target in experiment [1] is Rm62 (endogenous, SL2 cell nuclear extract) (Drosophila melanogaster (endogenous in SL2 cells)) (UniProt P19109). As to the kind of experiment: co-IP; nuclear extract of copper-induced HA-SU(VAR)3-9 SL2 cells; anti-Rm62 antibody 1E7 or IgG2c isotype control, Protein A/G Sepharose, 4°C; wash BC-300 (300 mM NaCl) with 0.1% NP-40; western blot. On the technique in general: Immunoblotting shows a protein as a band on a membrane.

The target in experiment [2] is GST SU(VAR)3-9 NT (aa 1–152) (Drosophila melanogaster) (UniProt P45975). As to the kind of experiment: pull-down; GST fusion proteins on glutathione-sepharose beads incubated with [35S]-methionine-labeled in vitro translated proteins; 100 mM NaCl, 20 mM Tris-HCl pH 8.0, 1 mM EDTA, 0.5% Nonidet P-40, ethidium bromide, BSA; 0.5 h at room temperature; autoradiography; only the target purified.

The target in experiment [3] is GST-Rm62 (Drosophila melanogaster) (UniProt P19109). The description is as above.

As to “HA-SU(VAR)3-9 (from UniProt P45975 1-635)”, in experiment [1], the binding result is “binds”.

Regarding “Rm62, in vitro translated (from UniProt P19109 1-719)”, the binding result in experiment [2] and in experiment [3] was “binds” in each case.

“SU(VAR)3-9, in vitro translated (from UniProt P45975 1-635)”: the binding entry in experiment [3] is listed as “binds”.
